Laboratory results reported in PubChem BioAssay AID587 (National Center for Advancing Translational Sciences (NCATS), 2007).
In all, about 59,000 compounds went through this assay and about 35 (0.06%) were called active. The inconclusive results got no clear call from the source; some entries with a clear call stand among them for comparison. Rule as the data show it: active = max dye-equivalent concentration above about 10 nM; inconclusive = between about 1.1 nM and that limit; inactive = weaker than that.

Assay: qHTS Assay for Spectroscopic Profiling in Texas Red Spectral Region
Conditions: Compound fluorescence, Texas Red channel, 547/618 nm; active compounds read high
Summary of the method: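 Dye-equivalent concentrations come from scaling compound signal (ex 547, em 618 nm) to six Texas Red standard concentrations run on every plate, after 15 min room-temperature incubation in pH 8.0 Tris (100 mM).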

**Q.** With `CN1C(=O)c2ccc(NC(=O)c3c(F)c(F)c(F)c(F)c3F)cc2C1=O` as the compound, how does the max dye-equivalent concentration read?
**A.** Its max dye-equivalent concentration is inconclusive: 1.1 nM.

**Q.** For `COc1cccc2c3c(c(C)nc12)CC(C)O3` (centres undefined), which max dye-equivalent concentration is on record?
**A.** Its max dye-equivalent concentration is inconclusive: 1.3 nM.

**Q.** Which max dye-equivalent concentration does the source give for `COc1ccc(-c2ocnc2C(=O)Nc2ccccc2N2CCCCC2)cc1` here?
**A.** The max dye-equivalent concentration was inconclusive: 1.9 nM.

**Q.** With `O=C(NC1CCCC1)C1CCCN1C(=O)Nc1ccccc1Cl` (centres undefined) as the compound, how does the max dye-equivalent concentration read?
**A.** Its max dye-equivalent concentration is inconclusive: 2.5 nM.

**Q.** For `CCN(CC)S(=O)(=O)c1ccc(Cl)c(C(=O)NCC2CCCO2)c1` (centres undefined), which max dye-equivalent concentration is on record?
**A.** The max dye-equivalent concentration was inconclusive: 1.5 nM.

**Q.** Which max dye-equivalent concentration does the source give for `CCCc1nc(SCC(N)=O)[nH]c(=O)c1CC` here?
**A.** The max dye-equivalent concentration was inconclusive: 1.7 nM.

**Q.** For `O=c1oc2c(CN3CCCCC3)c(O)ccc2cc1-c1nc2ccccc2[nH]1`, which max dye-equivalent concentration is on record?
**A.** Its max dye-equivalent concentration is “inactive”.

**Q.** For `CCOC(=O)c1cn(CC)c2cc(N3CCCCC3)c(F)cc2c1=O`, which max dye-equivalent concentration is on record?
**A.** The max dye-equivalent concentration was “inactive”.

**Q.** With `COc1ccc(OC)c(C(=O)CSc2nc3ncccc3[nH]2)c1` as the compound, how does the max dye-equivalent concentration read?
**A.** The max dye-equivalent concentration was inconclusive: 1.2 nM.

**Q.** Which max dye-equivalent concentration does the source give for `Cc1cc(NC(=O)CSc2ccc(-c3nc4cc(C)c(C)cc4[nH]3)cn2)no1` here?
**A.** The max dye-equivalent concentration was inconclusive: 1.2 nM.

**Q.** With `Cc1ccc(NC(=O)c2cccc(Cl)c2)nc1` as the compound, how does the max dye-equivalent concentration read?
**A.** Its max dye-equivalent concentration is inconclusive: 2 nM.

**Q.** With `Nc1c2c(nc3ccccc13)CCC[C@H]2O` as the compound, how does the max dye-equivalent concentration read?
**A.** The max dye-equivalent concentration was “inactive”.

**Q.** With `CCCN(CCC)C(=O)[C@@H](CCC(=O)O)NC(=O)c1ccccc1` as the compound, how does the max dye-equivalent concentration read?
**A.** Its max dye-equivalent concentration is inconclusive: 1.2 nM.

**Q.** What about the outcome of the same compound?
**A.** Its outcome is “inactive”.

**Q.** For `CC1CCCCC1NC(=O)CSc1nnc(COc2ccccc2Cl)o1` (centres undefined), which max dye-equivalent concentration is on record?
**A.** Its max dye-equivalent concentration is inconclusive: 1.3 nM.

**Q.** For `O=C(O)CCC/C=C\C[C@H]1[C@@H](/C=C\[C@@H](O)C2Cc3ccccc3C2)[C@H](F)C[C@H]1O`, which max dye-equivalent concentration is on record?
**A.** Its max dye-equivalent concentration is “inactive”.

**Q.** For `COC(=O)c1ccc(NC(=O)CN2CCOCC2)cc1`, which max dye-equivalent concentration is on record?
**A.** The max dye-equivalent concentration was inconclusive: 1.7 nM.

**Q.** For `CC(C)(C)CC(=O)N1CCC(c2nc3c(nnn3Cc3c(F)cccc3Cl)c(=O)[nH]2)CC1`, which max dye-equivalent concentration is on record?
**A.** The max dye-equivalent concentration was inconclusive: 1.8 nM.

**Q.** With `O=C(CC1=NC2(CCCC2)Cc2ccccc21)N1CCOCC1` as the compound, how does the max dye-equivalent concentration read?
**A.** The max dye-equivalent concentration was inconclusive: 2.3 nM.

**Q.** Which max dye-equivalent concentration does the source give for `Cc1cc(-c2nc3ncccc3o2)ccc1N` here?
**A.** Its max dye-equivalent concentration is inconclusive: 1.1 nM.

**Q.** Which max dye-equivalent concentration does the source give for `O=CNc1ncn[nH]1` here?
**A.** The max dye-equivalent concentration was “inactive”.

**Q.** For `CCCn1c(=S)[nH]c2cc(C(=O)N3CCN(c4ccccc4OC)CC3)ccc2c1=O`, which max dye-equivalent concentration is on record?
**A.** The max dye-equivalent concentration was inconclusive: 1.3 nM.

**Q.** Which max dye-equivalent concentration does the source give for `CCc1nnc(NC(=O)c2cccc(C(=O)Nc3nnc(CC)s3)n2)s1` here?
**A.** Its max dye-equivalent concentration is inconclusive: 1.8 nM.

**Q.** Which max dye-equivalent concentration does the source give for `CCOCCn1c(SCC)nc2c1c(=O)[nH]c(=O)n2C` here?
**A.** The max dye-equivalent concentration was inconclusive: 1.1 nM.

**Q.** For `Cc1ccc(N2C(=O)C3C(C2=O)C(C(=O)c2ccc(Cl)cc2)N2CCCC32)cc1` (centres undefined), which max dye-equivalent concentration is on record?
**A.** The max dye-equivalent concentration was “inactive”.

**Q.** For `Cn1c(=O)[nH]c(=O)c2c1nc(N1CCCCCC1)n2CCCSc1nc2ccccc2o1`, which max dye-equivalent concentration is on record?
**A.** Its max dye-equivalent concentration is inconclusive: 1.1 nM.

**Q.** Which max dye-equivalent concentration does the source give for `NC(=NCc1ccccc1)NC(=O)c1nc(Cl)c(N)nc1N` here?
**A.** Its max dye-equivalent concentration is inconclusive: 1.1 nM.

**Q.** For `Cc1cc(C)nc(-n2nc(C)cc2NC(=O)c2ccc3c(c2)OCO3)n1`, which max dye-equivalent concentration is on record?
**A.** The max dye-equivalent concentration was inconclusive: 1.6 nM.

**Q.** For `O=C(O)c1cc(O)c2c(c1)C(=O)c1cccc(O)c1C2=O`, which max dye-equivalent concentration is on record?
**A.** Its max dye-equivalent concentration is “inactive”.

**Q.** For `CCCOc1ccc(C2C(=O)N(C3CCCCC3)CC(=O)N2CCC)cc1OC` (centres undefined), which max dye-equivalent concentration is on record?
**A.** Its max dye-equivalent concentration is inconclusive: 1.2 nM.

**Q.** With `CC(C)c1c(O)nc(SCCC(=O)O)[nH]c1=O` as the compound, how does the max dye-equivalent concentration read?
**A.** Its max dye-equivalent concentration is inconclusive: 1.5 nM.

**Q.** For `O=C(c1ccc(Br)o1)N1CCN(c2ccccc2F)CC1`, which max dye-equivalent concentration is on record?
**A.** The max dye-equivalent concentration was inconclusive: 1.9 nM.

**Q.** With `Cc1cccc(-n2c(N)c(C(=O)NCCN3CCOCC3)c3nc4ccccc4nc32)c1` as the compound, how does the max dye-equivalent concentration read?
**A.** The max dye-equivalent concentration was inconclusive: 2.4 nM.

**Q.** Which max dye-equivalent concentration does the source give for `CCOC(=O)COc1cc(=O)n(CC)c2ccccc12` here?
**A.** Its max dye-equivalent concentration is inconclusive: 1.8 nM.

**Q.** With `COC(=O)c1cccc(NC(=O)CN2CCOCC2)c1` as the compound, how does the max dye-equivalent concentration read?
**A.** Its max dye-equivalent concentration is inconclusive: 1.2 nM.

**Q.** Which max dye-equivalent concentration does the source give for `Cn1c(SCC(=O)c2ccccc2F)nnc1C1CC1` here?
**A.** Its max dye-equivalent concentration is inconclusive: 1.1 nM.

**Q.** With `O=C(Cn1cnc2c(cnn2-c2ccc(Cl)cc2)c1=O)NCC1CCCO1` (centres undefined) as the compound, how does the max dye-equivalent concentration read?
**A.** The max dye-equivalent concentration was inconclusive: 1.5 nM.

**Q.** With `COCCn1c(=S)[nH]c2cc(C(=O)NCCCN3CCOCC3)ccc2c1=O` as the compound, how does the max dye-equivalent concentration read?
**A.** The max dye-equivalent concentration was inconclusive: 1.1 nM.

**Q.** With `CCOC(=O)CC(=O)Nc1nnc(C(C)C)s1` as the compound, how does the max dye-equivalent concentration read?
**A.** The max dye-equivalent concentration was inconclusive: 1.4 nM.

**Q.** For `Cn1c(=O)c2c(n(Cc3ccccc3)c1=O)NC(=O)C2CC(=O)N1CCc2ccccc2C1` (centres undefined), which max dye-equivalent concentration is on record?
**A.** Its max dye-equivalent concentration is “inactive”.

**Q.** Which max dye-equivalent concentration does the source give for `Cc1cccc(CS(=O)(=O)Cc2ccc(C(=O)NCCN3CCCCC3C)o2)c1` (centres undefined) here?
**A.** The max dye-equivalent concentration was inconclusive: 1.1 nM.

**Q.** For `Clc1cccc(Cl)c1-c1nnc2ccc(N3CCOCC3)nn12`, which max dye-equivalent concentration is on record?
**A.** The max dye-equivalent concentration was inconclusive: 1.2 nM.

**Q.** With `COc1ccccc1N1CCN(C(=O)c2cc3n(n2)C(C(F)(F)F)CC(c2ccco2)N3)CC1` (centres undefined) as the compound, how does the max dye-equivalent concentration read?
**A.** The max dye-equivalent concentration was inconclusive: 1.1 nM.

**Q.** For `CC(=O)O[C@@H]1C[C@]2(C)[C@H](C[C@@H](O)[C@H]3[C@@]4(C)CC[C@@H](O)[C@@H](C)[C@@H]4CC[C@@]32C)/C1=C(\CCC=C(C)C)C(=O)O`, which max dye-equivalent concentration is on record?
**A.** Its max dye-equivalent concentration is “inactive”.
